Laboratory results reported in article PMC4459816.
No constants are given. Whether binding was seen depends on the method and setting. Binding seen in cells or lysates may run through a third protein. Some results given as binding are weak or reduced against the parent protein; the word gives no strength.

By UniProt entry, the sequences of proteins in these tests, tags left out.
UniProt P39688: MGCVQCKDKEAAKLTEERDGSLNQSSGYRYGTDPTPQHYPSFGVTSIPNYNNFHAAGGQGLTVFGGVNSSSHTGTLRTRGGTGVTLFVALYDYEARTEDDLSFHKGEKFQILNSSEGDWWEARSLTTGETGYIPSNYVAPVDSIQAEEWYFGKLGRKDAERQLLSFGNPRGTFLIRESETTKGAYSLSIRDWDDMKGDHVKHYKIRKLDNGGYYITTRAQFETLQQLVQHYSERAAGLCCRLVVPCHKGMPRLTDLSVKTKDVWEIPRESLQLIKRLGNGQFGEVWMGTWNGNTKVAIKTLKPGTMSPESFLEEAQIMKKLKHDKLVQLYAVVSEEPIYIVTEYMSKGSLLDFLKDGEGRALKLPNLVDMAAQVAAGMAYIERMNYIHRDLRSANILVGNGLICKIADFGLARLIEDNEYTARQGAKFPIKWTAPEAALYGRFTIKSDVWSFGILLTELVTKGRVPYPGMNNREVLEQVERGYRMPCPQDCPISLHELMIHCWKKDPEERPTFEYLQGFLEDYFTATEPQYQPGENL

Molecular target: Fyn (mouse (endogenous in CD8+ CTLs)) (UniProt P39688)
Assay: co-IP; endogenous proteins; CD8+ CTLs stimulated with hydrogen peroxide and sodium orthovanadate; lysates incubated with various antibodies and protein G-coupled sepharose beads; immunoblotting with antibodies against SKAP55, ADAP and Fyn

B1: SKAP55 (src kinase-associated protein of 55 kDa) (protein, UniProt Q3UUV5 1-355)
chain: MQAVALPEEICWLLEDTEDFLAEGLQNENLSPGAQDQRAHILRGFQQIKSRYCWDFQPQGGDLGQDGSDDNLSGTHGPPLTSEASFWSDYQDEGIEDILRGAQELDSVIKQGYLEKKSKDHSFFGSEWQKRWCVISRGLFLYYANEKSKQPKGTFLIKGYSVRMAPHLRKDSKKESCFELISQDRRSYEFTASSPAEARDWVDQISFLLKDLSSLTIPFEEEEEEEEEEEKEEEEMYNDVDGFDSPRSGSQCRAMALPEPTEKEEDIYEVLPDDDDLEEDTCGAHRRRVDYADYYQGLWDCHGDQPDELSFQRGDLIRILSKEYNMYGWWVGELNSVIGIVPKDYLTTAFEMEGI
  binding: binds

B2: ADAP (adhesion and degranulation promoting adaptor protein) (protein, UniProt O35601 1-819)
chain: MAKFNTGSNPTEEAATSSRPFKVAGQSSPSGIQSRKNLFDNQGNASPPAGPSSMPKFGTTKPPLAAKPTYEEKPEKEPKPPFLKPTGGSPRFGTQPNSVSRDPEVKVGFLKPVSPKPTSLTKEDSKPVVLRPPGNKLHNLNQESDLKTPGPKPGPAPPVPENELKPGFSKVAGAKSKFMPAAQDTDSKPRFPRHTFGQKPSLSTEDSQEENTSKNVPVQKGSPVQLGAKSKGAPFKPPKEDPEDKDHGAPSSPFPGVVLKPAASRGSPGLSKNFEEKKEDRKTDLAKNIFLNKLNQEEPARFPKAPSKLTAGTPWGQSQEKEGDKNSATPKQKALPPLSVLGPPPPKPNRPPNVDLTRFRKADSANSATKSQTPYSTTSLPPPPPTHPASQPPLPASHPAHPPVPSLPPRNIKPPLDLKHPINDENQDGVMHSDGTGNLEEEQESEGETYEDIDSSKERDKKREKEEKKRLELERKEQKEREKKEQELKKKFKLTGPIQVIHHAKACCDVKGGKNELSFKQGEDIEIIRITDNPEGKWLGRTARGSYGYIKTTAVEIDYDSLKRKKNSLNAVPPRLVEDDQDVYDDVAEQDAPNSHGQSGSGGMFPPPPTDDEIYDGIEEEDDDDGSVPQVDEKTNAWSWGILKMLKGKDDRKKSIREKPKVSESDNNEGSSLPSQHKQLDVGEEVYDDVDASDFPPPPAEMSQGMSVGRAKTEEKDPKKLKKQEKEEKDLRKKFKYDGEIRVLYSTKVASSLTSKKWGARDLQIKPGESLEVIQSTDDTKVLCRNEEGKYGYVLRSYLVDNDGEIYDDIADGCIYDND
  binding: binds
